Assay [1] addresses MAX (MYC-associated factor X), human, endogenous (human (endogenous in human liver, H69, MzChA-1)) (UniProt P61244). Description: native gel or EMSA; probe with double TCFs/LEF1 element of the IL-6 promoter; nuclear proteins from H69, normal human liver, MzChA-1 and human CCA liver; antibodies added, IgG and probe only as controls.
Assay [2] has the same target. Description: native gel or EMSA; labeled probes with 2 E-box elements of the HMGB1 promoter; nuclear proteins from H69, normal human liver, MzChA-1 and human CCA liver; antibodies added, IgG and probe only as controls.
The target is the same in assay [3]. Put plainly: co-IP; human CCA and normal human liver lysates, then western blotting.
For assay [4], the target named is MAX (MYC-associated factor X), mouse, endogenous (mouse (endogenous in mouse liver)) (UniProt P28574). Put plainly: co-IP; anti-MAX antibody, then western blotting; cytoplasm and nucleus from CCA and normal mouse liver.
The target is the same in assay [5]. Put plainly: co-IP; cholangiocytes isolated from CCA and control mouse liver, then western blotting.
Assay [6] addresses recombinant MAX (UniProt P61244). Put plainly: pull-down; recombinant MAX and β-catenin with specific antibodies immobilized to A/G beads, in vitro; both purified.

Protein sequences, listed by entry. Tags and fused reporters are not part of them.
UniProt P61244: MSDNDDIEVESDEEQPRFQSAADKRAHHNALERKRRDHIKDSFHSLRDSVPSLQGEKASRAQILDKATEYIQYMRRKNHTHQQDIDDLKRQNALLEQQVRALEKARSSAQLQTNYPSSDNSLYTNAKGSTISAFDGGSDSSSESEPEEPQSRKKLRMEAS
UniProt P28574: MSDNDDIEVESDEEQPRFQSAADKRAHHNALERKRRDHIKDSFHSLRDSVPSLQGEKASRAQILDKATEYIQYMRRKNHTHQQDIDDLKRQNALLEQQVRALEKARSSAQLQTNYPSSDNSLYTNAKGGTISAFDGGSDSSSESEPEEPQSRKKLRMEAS
UniProt P35222: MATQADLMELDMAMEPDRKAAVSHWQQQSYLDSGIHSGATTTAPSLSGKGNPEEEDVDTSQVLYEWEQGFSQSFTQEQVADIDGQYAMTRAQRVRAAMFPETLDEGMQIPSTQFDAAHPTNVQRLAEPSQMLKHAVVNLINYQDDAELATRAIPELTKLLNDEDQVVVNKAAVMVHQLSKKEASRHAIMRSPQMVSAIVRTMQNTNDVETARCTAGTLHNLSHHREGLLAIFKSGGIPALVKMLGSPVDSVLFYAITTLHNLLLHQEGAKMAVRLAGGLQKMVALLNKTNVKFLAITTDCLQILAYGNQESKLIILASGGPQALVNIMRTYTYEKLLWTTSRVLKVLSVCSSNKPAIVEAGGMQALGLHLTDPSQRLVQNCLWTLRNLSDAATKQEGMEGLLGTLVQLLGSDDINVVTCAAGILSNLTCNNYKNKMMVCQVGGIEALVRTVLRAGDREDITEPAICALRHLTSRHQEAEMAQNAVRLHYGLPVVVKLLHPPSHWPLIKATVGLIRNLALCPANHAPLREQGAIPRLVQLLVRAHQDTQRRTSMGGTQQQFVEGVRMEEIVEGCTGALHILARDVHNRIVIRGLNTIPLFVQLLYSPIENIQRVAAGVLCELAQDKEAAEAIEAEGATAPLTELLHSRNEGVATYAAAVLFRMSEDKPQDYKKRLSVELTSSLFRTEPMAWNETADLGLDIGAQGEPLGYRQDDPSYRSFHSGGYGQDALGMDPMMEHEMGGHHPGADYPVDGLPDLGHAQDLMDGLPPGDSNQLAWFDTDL
UniProt P63158: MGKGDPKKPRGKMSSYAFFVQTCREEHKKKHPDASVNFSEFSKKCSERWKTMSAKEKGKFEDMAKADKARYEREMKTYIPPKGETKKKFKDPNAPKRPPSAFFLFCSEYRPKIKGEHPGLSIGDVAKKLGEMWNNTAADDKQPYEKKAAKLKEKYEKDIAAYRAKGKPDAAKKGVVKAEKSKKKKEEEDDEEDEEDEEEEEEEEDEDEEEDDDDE
UniProt Q02248: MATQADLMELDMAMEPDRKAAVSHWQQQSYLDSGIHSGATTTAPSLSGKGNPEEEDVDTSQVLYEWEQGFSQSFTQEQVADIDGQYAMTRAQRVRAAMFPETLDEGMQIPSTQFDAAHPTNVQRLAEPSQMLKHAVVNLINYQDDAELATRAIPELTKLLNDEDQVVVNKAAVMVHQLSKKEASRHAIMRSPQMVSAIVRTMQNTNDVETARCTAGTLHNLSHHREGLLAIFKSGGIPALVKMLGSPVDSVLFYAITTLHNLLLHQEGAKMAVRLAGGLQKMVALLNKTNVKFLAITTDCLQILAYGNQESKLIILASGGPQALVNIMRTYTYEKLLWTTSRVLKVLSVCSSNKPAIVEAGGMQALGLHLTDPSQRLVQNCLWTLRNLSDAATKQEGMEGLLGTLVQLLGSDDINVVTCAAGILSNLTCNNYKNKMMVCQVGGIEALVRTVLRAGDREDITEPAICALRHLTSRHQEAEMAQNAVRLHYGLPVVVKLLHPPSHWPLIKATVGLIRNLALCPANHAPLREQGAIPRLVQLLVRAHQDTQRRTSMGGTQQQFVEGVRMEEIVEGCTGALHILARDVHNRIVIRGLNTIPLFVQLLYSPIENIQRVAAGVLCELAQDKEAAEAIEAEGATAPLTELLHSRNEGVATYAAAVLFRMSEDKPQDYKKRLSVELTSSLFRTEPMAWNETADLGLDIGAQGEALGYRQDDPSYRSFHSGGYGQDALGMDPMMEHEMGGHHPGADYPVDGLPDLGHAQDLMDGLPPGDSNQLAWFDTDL

Results are given in words; binding and its absence hold for the method and conditions named. For some assays here: In cells and extracts the contact can be indirect. Some binding calls cover weakened binding; strength is not graded here.

As to “β-catenin (catenin beta-1), human, endogenous (from UniProt P35222 1-781)”, the binding result in assay [1], in assay [2] and in assay [3] was “binds” in each case.
Regarding “High-mobility group box-1 (HMGB1), mouse, endogenous (from UniProt P63158 1-215)”, the binding result in assay [4] and in assay [5] was “binds” each time.
For “recombinant β-catenin (from UniProt P35222 1-781)”, the binding entry in assay [6] is reported as “binds”.
“β-catenin (catenin beta-1), mouse, endogenous (from UniProt Q02248 1-781)”: the binding result in assay [4] and in assay [5] was “binds” in each case.

These data come from PMC10289747.
